Results taken from patent publication US20210361664A1, “CORTICOTROPIN RELEASING FACTOR RECEPTOR ANTAGONISTS” (Spruce Biosciences, Inc., priority 2017, published 2021).
At least one read-out could not be matched to a standard name with certainty.

Columns and labels:
[1] = Study 2 Part A: multiple-dose, dose-escalation pharmacokinetics (Phase 1, 14 days); assay type: in vivo, human; settings: oral dosing, 50-200 mg, fed
Method: The 2-part multiple-dose study, Study 2, determined the safety and tolerability of repeated daily doses of Compound 1 and investigated the effects on biomarkers of relevance for the treatment of alcohol dependence.
PK were also evaluated in the multiple-dose, dose-escalation study, Study 2. In Part A of the study, subjects were divided into 3 cohorts and received 50, 150, or 200 mg Compound 1 or placebo for 14 consecutive days (at least 6 subjects received Compound 1 and 2 subjects received placebo in each cohort). […] All dosing occurred in the fed state. An assessment of diurnal cortisol levels, plus when under conditions of glucose clamp, were also carried out both prior to and during the dosing period.
Consistent with the single-dose study (Study 1), concentrations appeared to decline in a bi-exponential manner, characterized by a rapid decrease within the first 24 hours. […] The Tmax appeared to be consistent across doses. Overall half-lives, weight normalized CL/F and V/F were consistent for 150 and 200 mg. However, the values for these latter 2 parameters were almost doubled at the 50-mg dose level. Variability (CV %) for apparent clearance and volume of distribution were large and not reduced with weight-normalization.
Table 8 presents the results of the dose proportionality assessment for the AUC0-24 and Cmax over the tested dose range.

[2] = Study 1: single-escalating oral dose pharmacokinetics, incl. food effect (Phase 1); assay type: in vivo, human
Method: Study 1 was the first-in-human study that investigated the safety, tolerability, and PK of single-escalating doses of Compound 1, given orally, to healthy adult subjects. […] The data from this study were used for the selection of doses for Study 2.
In Study 1, Compound 1 was administered to healthy adult subjects as a single PO dose of 2, 10, 50, 150, 400, or 800 mg in the fed state and 150 mg in the fasted state. Absorption occurred moderately late, achieving peak Cmax between 4 to 6 hours following dosing in the fed state.
When Compound 1 was given in the fed state, median time to reach maximum plasma concentration (Tmax) occurred between 4 and 6 hours.
As part of this single-dose escalation study, a food effect PK investigation was performed to examine Compound 1 exposures in both the fed and fasted states at the 150-mg dose level. A total of 6 subjects were administered 150 mg Compound 1 in each of these 2 dosing groups. Of these 6 subjects, 4 subjects received Compound 1 at the same dose in both fed and fasted states. […] Table 6 provides a summary of the PK parameters at the 150-mg dose level under both fed and fasted state conditions.
PK parameters AUC0-∞ and Cmax were analyzed separately for dose proportionality for Compound 1 from 50 to 800 mg when administered in the fed state. […]

CCC(CC)c1cc(C)nc2c(-c3sc(N4CCOCC4)nc3Cl)c(C)nn12 [Compound 1, 3-(4-Chloro-2-(morpholin-4-yl)thiazol-5-yl)-7-(1-ethylpropyl)-2,5-dimethylpyrazolo(1,5-a)pyrimidine]
median time at which Cmax is achieved [1]: 5 h | Apparent volume of distribution (Vz/F), in words [2]: large and appeared highly variable
